Experimental data: PubChem BioAssay AID1053208 (Peter MacCallum Cancer Centre, 2014)
Assay: 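Synthetic lethal interactions between gene loss and doxorubicin in osteosarcoma cells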 (primary screen). Cell system: mouse osteosarcoma cells, early-passage culture from an engineered mouse model of fibroblastic bone tumour. Reagent: siRNA pool against mouse genes, 40 nM. Duration: about 120 h (48 h before drug, then 72 h with drug). Treatment: doxorubicin 100 nM for 72 h, roughly 30-40% inhibitory dose. Measurement: 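Viability read as ATP luminescence after 72 h of 100 nM doxorubicin or none, duplicate wells averaged, scaled to non-targeting siRNA, then expressed as robust z-scores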. Direction: viability z-score with doxorubicin: higher = more viable cells under doxorubicin; viability z-score without drug: higher = more viable cells with knock-down alone. Active means: 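a pool counts as active when its viability z-score with doxorubicin is -2 or below and its z-score without drug lies between -2 and 2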.
This is a random part of about 17,000 reagents. 788 of them (4.7%) count as active. 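Calls rest on z-score classes alone; an extra cut-off of viability at most 70% of control was not applied to them.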 Entries without a mark were called inactive. Not all columns of the deposit are shown. No sequences are given here.

gene | combined z-score class | viability z-score with doxorubicin | viability z-score without drug
Notum (notum palmitoleoyl-protein carboxylesterase) | high cell count with doxorubicin only | 2.14 | 1.69
Or5an10 (olfactory receptor family 5 subfamily AN member 10) | low cell count with and without drug | -2.25 | -2.53
Mcm10 (minichromosome maintenance 10 replication initiation factor) | no change with or without drug | -1.35 | 0.17
Tmed3 (transmembrane p24 trafficking protein 3) | no change with or without drug | 1.35 | 0.51
Irx1 (Iroquois homeobox 1) | no change with or without drug | 0 | -0.51
Hspb8 (heat shock protein family B (small) member 8) | no change with or without drug | 0.67 | -0.17
Gtf2a2 (general transcription factor II A, 2) | no change with or without drug | -0.79 | -0.17
Il36rn (interleukin 36 receptor antagonist) | no change with or without drug | -1.69 | -1.01
Dsg2 (desmoglein 2) | no change with or without drug | 0.45 | -0.17
Vnn1 (vanin 1) | no change with or without drug | 0.79 | 0.84
Slc5a4b | low cell count with doxorubicin only (active) | -2.14 | -0.17
Ak9 (adenylate kinase 9) | no change with or without drug | 1.24 | 1.18
Ghsr (growth hormone secretagogue receptor) | no change with or without drug | -0.79 | -0.17
Cenpa (centromere protein A) | no change with or without drug | -1.35 | -0.17
Tcl1b5 (T cell leukemia/lymphoma 1B, 5) | no change with or without drug | -0.11 | -0.17
C2cd2 (C2 calcium-dependent domain containing 2) | no change with or without drug | -0.34 | 1.18
Blm (Bloom syndrome, RecQ like helicase) | no change with or without drug | 0.34 | -0.17
Mug1 (murinoglobulin 1) | no change with or without drug | -0.9 | 0.51
Tctn2 (tectonic family member 2) | no change with or without drug | 0.79 | -1.52
Fas (Fas cell surface death receptor) | no change with or without drug | 0.22 | -1.35
Rpl9 (ribosomal protein L9) | low cell count with and without drug | -6.74 | -7.25
Hsd17b10 (hydroxysteroid (17-beta) dehydrogenase 10) | no change with or without drug | -0.34 | -1.18
Apba1 (amyloid beta precursor protein binding family A member 1) | no change with or without drug | -0.67 | 0.51
Anp32b (acidic nuclear phosphoprotein 32 family member B) | no change with or without drug | -0.56 | -0.17
Or5w1b (olfactory receptor family 5 subfamily W member 1B) | no change with or without drug | -1.12 | -0.51
Tep1 (telomerase associated protein 1) | no change with or without drug | -1.35 | -1.52
Abhd17c (abhydrolase domain containing 17C) | no change with or without drug | -0.34 | 1.18
Plaat1 (phospholipase A and acyltransferase 1) | no change with or without drug | -0.22 | 0.17
Scnn1b (sodium channel, nonvoltage-gated 1 beta) | no change with or without drug | -0.45 | 0.51
Hint3 (histidine triad nucleotide binding protein 3) | no change with or without drug | -0.56 | -0.84
Magi2 | no change with or without drug | -0.22 | -0.84
Map3k12 (mitogen-activated protein kinase kinase kinase 12) | no change with or without drug | 1.12 | -0.17
Armh4 (armadillo-like helical domain containing 4) | no change with or without drug | 0.34 | -0.17
Or4d2b (olfactory receptor family 4 subfamily D member 2B) | no change with or without drug | -0.67 | -0.51
Ppp1r15a (protein phosphatase 1, regulatory subunit 15A) | no change with or without drug | -0.22 | -0.84
Calcr (calcitonin receptor) | no change with or without drug | 0.34 | 1.35
Aven (apoptosis, caspase activation inhibitor) | no change with or without drug | -0.22 | 1.52
Ldlrap1 (low density lipoprotein receptor adaptor protein 1) | no change with or without drug | -0.22 | -0.84
Erbb2 (erb-b2 receptor tyrosine kinase 2) | no change with or without drug | -1.01 | -0.84
Col9a1 (collagen, type IX, alpha 1) | no change with or without drug | 0.56 | 0.51
Calb1 (calbindin 1) | no change with or without drug | 0.11 | -0.34
Mfap5 (microfibrillar associated protein 5) | low cell count with doxorubicin only (active) | -3.15 | -1.18
Klhl2 (kelch-like 2, Mayven) | no change with or without drug | -1.57 | 0.17
Dnttip2 (deoxynucleotidyltransferase, terminal, interacting protein 2) | no change with or without drug | 0 | -0.17
Or52a24 (olfactory receptor family 52 subfamily A member 24) | no change with or without drug | 0.34 | 0.51
Kcnh5 | no change with or without drug | -1.46 | -1.35
Nlrp10 (NLR family, pyrin domain containing 10) | no change with or without drug | 1.12 | 0
Shoc2 (Shoc2, leucine rich repeat scaffold protein) | no change with or without drug | 0.45 | 1.52
Kcnj9 (potassium inwardly-rectifying channel, subfamily J, member 9) | no change with or without drug | 0.34 | -0.84
Gin1 (gypsy retrotransposon integrase 1) | no change with or without drug | 0 | 1.18

A run of entries taken from the entries so far, as a working copy:
gene | combined z-score class | viability z-score with doxorubicin | viability z-score without drug
Tmed3 (transmembrane p24 trafficking protein 3) | no change with or without drug | 1.35 | 0.51
Irx1 (Iroquois homeobox 1) | no change with or without drug | 0 | -0.51
Hspb8 (heat shock protein family B (small) member 8) | no change with or without drug | 0.67 | -0.17
Gtf2a2 (general transcription factor II A, 2) | no change with or without drug | -0.79 | -0.17
